Data on 1 substance can be found in publication doi:10.1101/2024.07.05.602290.

By UniProt entry, the sequences of proteins in these tests, tags left out. Where a name states a change or a piece, a line headed by the entry shows the natural chain unless it says otherwise. Residues count along the entry.
UniProt P05161, residues 1-157: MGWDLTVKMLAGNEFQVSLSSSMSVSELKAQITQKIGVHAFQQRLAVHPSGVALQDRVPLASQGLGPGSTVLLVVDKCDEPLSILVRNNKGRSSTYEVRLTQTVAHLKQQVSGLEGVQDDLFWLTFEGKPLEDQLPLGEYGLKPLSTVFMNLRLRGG
UniProt P08648: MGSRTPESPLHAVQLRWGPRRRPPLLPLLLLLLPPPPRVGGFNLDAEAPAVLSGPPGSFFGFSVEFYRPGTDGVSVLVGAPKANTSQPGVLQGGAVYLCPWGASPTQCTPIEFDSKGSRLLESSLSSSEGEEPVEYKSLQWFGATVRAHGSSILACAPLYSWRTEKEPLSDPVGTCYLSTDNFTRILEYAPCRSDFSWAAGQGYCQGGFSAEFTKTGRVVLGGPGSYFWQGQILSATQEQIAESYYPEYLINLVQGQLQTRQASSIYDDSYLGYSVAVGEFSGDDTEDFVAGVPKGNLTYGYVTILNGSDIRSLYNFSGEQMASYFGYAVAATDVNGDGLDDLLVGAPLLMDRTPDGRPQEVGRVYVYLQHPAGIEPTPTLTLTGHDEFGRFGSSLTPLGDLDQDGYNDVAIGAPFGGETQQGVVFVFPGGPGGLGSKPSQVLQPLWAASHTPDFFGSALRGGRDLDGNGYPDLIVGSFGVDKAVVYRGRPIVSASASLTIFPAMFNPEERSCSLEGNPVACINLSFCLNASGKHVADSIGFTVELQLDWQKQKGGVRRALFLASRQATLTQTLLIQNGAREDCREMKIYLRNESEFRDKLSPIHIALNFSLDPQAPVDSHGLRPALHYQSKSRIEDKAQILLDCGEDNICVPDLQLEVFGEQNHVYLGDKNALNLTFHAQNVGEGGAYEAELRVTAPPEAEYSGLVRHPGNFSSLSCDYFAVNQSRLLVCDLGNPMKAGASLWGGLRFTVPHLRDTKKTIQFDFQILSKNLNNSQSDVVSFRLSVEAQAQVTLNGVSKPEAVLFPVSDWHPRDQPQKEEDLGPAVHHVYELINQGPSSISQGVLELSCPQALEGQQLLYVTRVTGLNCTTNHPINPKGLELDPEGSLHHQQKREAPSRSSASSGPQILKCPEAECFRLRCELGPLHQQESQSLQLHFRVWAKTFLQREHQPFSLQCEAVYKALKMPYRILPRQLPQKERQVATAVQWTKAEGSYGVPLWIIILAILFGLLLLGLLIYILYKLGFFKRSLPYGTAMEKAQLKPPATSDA

The test deals with purified recombinant ISG15 protein (Interferon Stimulated Gene 15) (UniProt P05161). In words: co-IP.

No constants are given. Whether binding was seen depends on the method and setting. Binding seen in cells or lysates may run through a third protein. Some results given as binding are weak or reduced against the parent protein; the word gives no strength.

“cell surface α5β1 integrin of A549 cells (from UniProt P08648 42-1049; P05556 21-798) (receptor)”: the binding result is on record as “binds”.
